Experimental data taken from patent US20110311517A1, “Antibodies and methods for treating estrogen receptor-associated diseases” (SHENOGEN PHARMA GROUP, LTD., priority 2009, published 2011).
Results are given in words; binding and its absence hold for the method and conditions named. Some binding calls cover weakened binding; strength is not graded here.

B1: human anti-ERα36 ScFv2 (purified, re-natured) (scFv)
scFv: QSALTQPASVSGSPGQSITISCTGTSSDVGGYNYVSWYQQHPGKAPKLMIYDVSKRPSGVSNRFSGSKSGNTASLTISGLQAEDEADYYCSSYTSSSTLVFGGGTKLTVLGSGGSTITSYNVYYTKLSSSGTQVQLLESGAEVKKPGASVKVSCKASGYTFTAYYMHWVRQAPGQGLEWMAMIDPSGSITSYAQKFQGRVTMSRDTSTSTLYMELSSLRSDDTAVYYCARDLKEGFSVPGAFDIWGQGTMVTVSSAS
B2: human anti-ERα36 ScFv3 (purified, re-natured) (scFv)
scFv: QSVLTQPASVSGSPGQSITISCTGTSSDVGGYNYVSWYQQHPGKAPKLMIYDVSKRPSGVSNRFSGSKSGNTASLTISGLQAEDEADYYCSSYTSSSTLVFGGGTKLTVLGSGGSTITSYNVYYTKLSSSGTEVQLVQSGGGVAQPGRSLRLSCAASGITFNSYGMHWVRQAPGKGLEWVAVMPYDGSNEYYADSVKGRFTISRDNSKNTLYLQMNSLRAEDTAVYYCAKGSGMVQLWADAFDVWGQGTMVTVSSAS
B3: human anti-ERα36 ScFv6 (purified, re-natured) (scFv)
scFv: EIVMTQSPGTLSLSPGERATLSCRASQSVDSNFLAWYQQRPGQAPRLLIYGVSSSATGIPDRFSGSGSGTDFTLSIDRLEPEDFAVYYCQQYGSSPTFGGGTKLEIKRSGGSTITSYNVYYTKLSSSGTQVQLQESGGGLVQPGRSLRLSCAASGFTFDDYAMHWVRQAPGKGLEWVSGISWNSGSIGYADSVKGRFTISRDNAKNSLYLQMNSLRAEDTAVYYCARSGDYGAFDIWGQGTMVTVSSAS
B4: human anti-ERα36 ScFv7 (purified, re-natured) (scFv)
scFv: QSVLTQPPSVSAAPGQKVTISCSGSSSNIGNNYVSWYQQLPGTAPKLLIYDNNKRPSGIPDRFSGSKSGTSATLGITGLQTGDEADYYCGTWDSSLSAGVFGGGTKLTVLGSGGSTITSYNVYYTKLSSSGTEVQLVQSGGGLVQPGRSLRLSCAASGFTFDDYAMHWVRQAPGKGLEWVSGISWNSGSIGYADSVKGRFTISRDNAKNSLYLQMNSLRAEDTALYYCAKEGDSSGWSPDYWGQGTLVTVSSAS
B5: phage-displayed ScFv2 (phage clones 1, 7, 11, 15, 17, 25, 28, 34, 38) (scFv)
scFv: B1 scFv
B6: phage-displayed ScFv3 (phage clones 4, 8, 14, 22, 23, 37) (scFv)
scFv: B2 scFv
B7: phage-displayed ScFv6 (phage clones 27, 39, 26) (scFv)
scFv: B3 scFv
B8: phage-displayed ScFv7 (phage clone 12) (scFv)
scFv: B4 scFv

target: T1, biotinylated ERα36 (chemically synthesised target peptide, SEQ ID NO:2) (human); test: ELISA on biotinylated ERα36 (streptavidin plate)
T1 sequence (peptide, labeled with biotin (site not stated)): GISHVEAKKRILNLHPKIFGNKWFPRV

Binder | binding
B1 | binds
B2 | binds
B3 | binds
B4 | binds

target: T1, biotinylated ERα36 (chemically synthesised target peptide, SEQ ID NO:2) (human); test: phage ELISA, biotinylated ERα36 on neutravidin plate

Binder | binding
B5 | binds
B6 | binds
B7 | binds
B8 | binds
